Measured values published in US6429304.
These are yes or no findings as the source states them, for the method shown. In cells and extracts the contact can be indirect. Some results given as binding are weak or reduced against the parent protein; the word gives no strength. Sequences can lack the tags named with a protein.

Protein sequences, listed by entry. Tags and fused reporters are not part of them. Lines headed by an entry give the natural chain unless they say otherwise; changes in a name come on top.
UniProt O61577: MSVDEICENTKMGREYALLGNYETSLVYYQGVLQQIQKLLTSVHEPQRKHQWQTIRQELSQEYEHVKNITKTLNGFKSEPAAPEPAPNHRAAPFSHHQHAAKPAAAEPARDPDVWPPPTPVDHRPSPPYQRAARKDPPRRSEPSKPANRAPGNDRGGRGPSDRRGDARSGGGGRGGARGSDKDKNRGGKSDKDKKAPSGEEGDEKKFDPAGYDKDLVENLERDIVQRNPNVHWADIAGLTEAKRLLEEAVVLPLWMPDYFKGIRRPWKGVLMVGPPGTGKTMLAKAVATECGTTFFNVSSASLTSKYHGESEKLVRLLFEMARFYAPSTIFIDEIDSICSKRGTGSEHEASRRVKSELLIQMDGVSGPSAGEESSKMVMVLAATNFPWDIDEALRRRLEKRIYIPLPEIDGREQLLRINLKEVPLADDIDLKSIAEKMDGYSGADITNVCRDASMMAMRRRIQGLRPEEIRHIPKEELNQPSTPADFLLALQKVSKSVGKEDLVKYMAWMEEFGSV

Target: in vitro translated S. purpuratus p60 katanin with 37 amino acid N-terminal S-Tag (Strongylocentrotus purpuratus) (UniProt O61577)
Test: co-translation in rabbit reticulocyte lysate, co-immunoprecipitation with anti-p60 antibody

B1: in vitro translated full-length S. purpuratus p80 katanin with 37 amino acid N-terminal S-Tag (protein, not shown: small tags and cut ends)
chain: MATKRAWKLQELVAHSSNVNCLALGPMSGRVMVTGGEDKKVNLWAVGKQNCIISLSGHTSPVDSVKFNSSEELVVAGSQSGTMKIYDLEPAKIVRTLTGHRNSIRCMDFHPFGEFVASGSTDTNVKLWDVRRKGCIYTYKGHSDQVNMIKFSPDGKWLVTASEDTTIKLWDLTMGKLFQEFKNHTGGVTGIEFHPNEFLLASGSSDRTVQFWDLETFQLVSSTSPGASAVRSISFHPDGSYLFCSSQDMLHAFGWEPIRCFDTFSVGWGKVADTVIASTQLIGASFNATNVSVYVADLSRMSTTGIAQEPQSQPSKTPSGGAEEVPSKPLTASGRKNFVRERPHTTSSKQRQPDVKSEPERQSPTQDEGVKDDDATDIKDPDSYAKIFSPKTRVDHSPERNAQPFPAPLDVPGAQEPEPFKHPPKPAAAAAVAPVSRAPAPSASDWQPAQANPAPNRVPAATKPVPAQEVAPSRKPDPISTIIPSDRNKPANLDMDAFLPPAHAQQAPRVNAPASRKQSDSERIEGLRKGHDSMCQVLSSRHRNLDVVRAIWTAGDAKTSVESVVNMKDQAILVDILNIMLLKKSLWNLDMCVVVLPRLKELLSSKYENYVHTSCACLKLILKNFTSLFNQNIKCPPSGIDITREERYNKCSKCYSYLIATRGYVEEKQHVSGKLGSSFRELHLLLDQLE
Question: How did the binding turn out when B1 was run?
Answer: binds
